Assay [1] concerns the target ARIH1^-C357S-HA (ligase-dead ARIH1, HA-tagged) (human) (UniProt Q9Y4X5). In words: affinity purification with mass spectrometry; ARIH1^-WT-HA or ARIH1^-C357S-HA transfected into HEK293T for 36 h, immunoprecipitated, trypsin digested on beads, Q Exactive HF-X.
Assay [2] concerns the target ARIH1^-WT-HA (Ariadne RBR E3 ubiquitin-protein ligase 1, HA-tagged) (human) (UniProt Q9Y4X5). The description is as above.

Chains of the proteins cited; added tags and fusions are not shown. Lines headed by an entry give the natural chain unless they say otherwise; changes in a name come on top.
UniProt Q9Y4X5: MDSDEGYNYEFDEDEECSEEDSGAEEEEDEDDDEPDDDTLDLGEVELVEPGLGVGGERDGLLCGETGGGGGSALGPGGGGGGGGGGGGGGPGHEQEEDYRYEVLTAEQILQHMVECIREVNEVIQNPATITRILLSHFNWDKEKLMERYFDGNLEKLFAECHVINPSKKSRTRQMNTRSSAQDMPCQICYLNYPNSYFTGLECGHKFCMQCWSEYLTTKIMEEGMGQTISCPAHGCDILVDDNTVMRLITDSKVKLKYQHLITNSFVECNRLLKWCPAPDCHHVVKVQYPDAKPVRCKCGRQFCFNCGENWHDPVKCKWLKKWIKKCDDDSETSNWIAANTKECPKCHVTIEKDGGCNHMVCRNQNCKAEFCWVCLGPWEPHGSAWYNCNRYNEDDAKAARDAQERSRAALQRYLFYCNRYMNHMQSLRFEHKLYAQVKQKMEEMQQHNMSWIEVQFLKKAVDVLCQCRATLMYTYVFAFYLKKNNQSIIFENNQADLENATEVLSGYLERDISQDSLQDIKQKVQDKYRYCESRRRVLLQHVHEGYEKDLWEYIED
UniProt P78527: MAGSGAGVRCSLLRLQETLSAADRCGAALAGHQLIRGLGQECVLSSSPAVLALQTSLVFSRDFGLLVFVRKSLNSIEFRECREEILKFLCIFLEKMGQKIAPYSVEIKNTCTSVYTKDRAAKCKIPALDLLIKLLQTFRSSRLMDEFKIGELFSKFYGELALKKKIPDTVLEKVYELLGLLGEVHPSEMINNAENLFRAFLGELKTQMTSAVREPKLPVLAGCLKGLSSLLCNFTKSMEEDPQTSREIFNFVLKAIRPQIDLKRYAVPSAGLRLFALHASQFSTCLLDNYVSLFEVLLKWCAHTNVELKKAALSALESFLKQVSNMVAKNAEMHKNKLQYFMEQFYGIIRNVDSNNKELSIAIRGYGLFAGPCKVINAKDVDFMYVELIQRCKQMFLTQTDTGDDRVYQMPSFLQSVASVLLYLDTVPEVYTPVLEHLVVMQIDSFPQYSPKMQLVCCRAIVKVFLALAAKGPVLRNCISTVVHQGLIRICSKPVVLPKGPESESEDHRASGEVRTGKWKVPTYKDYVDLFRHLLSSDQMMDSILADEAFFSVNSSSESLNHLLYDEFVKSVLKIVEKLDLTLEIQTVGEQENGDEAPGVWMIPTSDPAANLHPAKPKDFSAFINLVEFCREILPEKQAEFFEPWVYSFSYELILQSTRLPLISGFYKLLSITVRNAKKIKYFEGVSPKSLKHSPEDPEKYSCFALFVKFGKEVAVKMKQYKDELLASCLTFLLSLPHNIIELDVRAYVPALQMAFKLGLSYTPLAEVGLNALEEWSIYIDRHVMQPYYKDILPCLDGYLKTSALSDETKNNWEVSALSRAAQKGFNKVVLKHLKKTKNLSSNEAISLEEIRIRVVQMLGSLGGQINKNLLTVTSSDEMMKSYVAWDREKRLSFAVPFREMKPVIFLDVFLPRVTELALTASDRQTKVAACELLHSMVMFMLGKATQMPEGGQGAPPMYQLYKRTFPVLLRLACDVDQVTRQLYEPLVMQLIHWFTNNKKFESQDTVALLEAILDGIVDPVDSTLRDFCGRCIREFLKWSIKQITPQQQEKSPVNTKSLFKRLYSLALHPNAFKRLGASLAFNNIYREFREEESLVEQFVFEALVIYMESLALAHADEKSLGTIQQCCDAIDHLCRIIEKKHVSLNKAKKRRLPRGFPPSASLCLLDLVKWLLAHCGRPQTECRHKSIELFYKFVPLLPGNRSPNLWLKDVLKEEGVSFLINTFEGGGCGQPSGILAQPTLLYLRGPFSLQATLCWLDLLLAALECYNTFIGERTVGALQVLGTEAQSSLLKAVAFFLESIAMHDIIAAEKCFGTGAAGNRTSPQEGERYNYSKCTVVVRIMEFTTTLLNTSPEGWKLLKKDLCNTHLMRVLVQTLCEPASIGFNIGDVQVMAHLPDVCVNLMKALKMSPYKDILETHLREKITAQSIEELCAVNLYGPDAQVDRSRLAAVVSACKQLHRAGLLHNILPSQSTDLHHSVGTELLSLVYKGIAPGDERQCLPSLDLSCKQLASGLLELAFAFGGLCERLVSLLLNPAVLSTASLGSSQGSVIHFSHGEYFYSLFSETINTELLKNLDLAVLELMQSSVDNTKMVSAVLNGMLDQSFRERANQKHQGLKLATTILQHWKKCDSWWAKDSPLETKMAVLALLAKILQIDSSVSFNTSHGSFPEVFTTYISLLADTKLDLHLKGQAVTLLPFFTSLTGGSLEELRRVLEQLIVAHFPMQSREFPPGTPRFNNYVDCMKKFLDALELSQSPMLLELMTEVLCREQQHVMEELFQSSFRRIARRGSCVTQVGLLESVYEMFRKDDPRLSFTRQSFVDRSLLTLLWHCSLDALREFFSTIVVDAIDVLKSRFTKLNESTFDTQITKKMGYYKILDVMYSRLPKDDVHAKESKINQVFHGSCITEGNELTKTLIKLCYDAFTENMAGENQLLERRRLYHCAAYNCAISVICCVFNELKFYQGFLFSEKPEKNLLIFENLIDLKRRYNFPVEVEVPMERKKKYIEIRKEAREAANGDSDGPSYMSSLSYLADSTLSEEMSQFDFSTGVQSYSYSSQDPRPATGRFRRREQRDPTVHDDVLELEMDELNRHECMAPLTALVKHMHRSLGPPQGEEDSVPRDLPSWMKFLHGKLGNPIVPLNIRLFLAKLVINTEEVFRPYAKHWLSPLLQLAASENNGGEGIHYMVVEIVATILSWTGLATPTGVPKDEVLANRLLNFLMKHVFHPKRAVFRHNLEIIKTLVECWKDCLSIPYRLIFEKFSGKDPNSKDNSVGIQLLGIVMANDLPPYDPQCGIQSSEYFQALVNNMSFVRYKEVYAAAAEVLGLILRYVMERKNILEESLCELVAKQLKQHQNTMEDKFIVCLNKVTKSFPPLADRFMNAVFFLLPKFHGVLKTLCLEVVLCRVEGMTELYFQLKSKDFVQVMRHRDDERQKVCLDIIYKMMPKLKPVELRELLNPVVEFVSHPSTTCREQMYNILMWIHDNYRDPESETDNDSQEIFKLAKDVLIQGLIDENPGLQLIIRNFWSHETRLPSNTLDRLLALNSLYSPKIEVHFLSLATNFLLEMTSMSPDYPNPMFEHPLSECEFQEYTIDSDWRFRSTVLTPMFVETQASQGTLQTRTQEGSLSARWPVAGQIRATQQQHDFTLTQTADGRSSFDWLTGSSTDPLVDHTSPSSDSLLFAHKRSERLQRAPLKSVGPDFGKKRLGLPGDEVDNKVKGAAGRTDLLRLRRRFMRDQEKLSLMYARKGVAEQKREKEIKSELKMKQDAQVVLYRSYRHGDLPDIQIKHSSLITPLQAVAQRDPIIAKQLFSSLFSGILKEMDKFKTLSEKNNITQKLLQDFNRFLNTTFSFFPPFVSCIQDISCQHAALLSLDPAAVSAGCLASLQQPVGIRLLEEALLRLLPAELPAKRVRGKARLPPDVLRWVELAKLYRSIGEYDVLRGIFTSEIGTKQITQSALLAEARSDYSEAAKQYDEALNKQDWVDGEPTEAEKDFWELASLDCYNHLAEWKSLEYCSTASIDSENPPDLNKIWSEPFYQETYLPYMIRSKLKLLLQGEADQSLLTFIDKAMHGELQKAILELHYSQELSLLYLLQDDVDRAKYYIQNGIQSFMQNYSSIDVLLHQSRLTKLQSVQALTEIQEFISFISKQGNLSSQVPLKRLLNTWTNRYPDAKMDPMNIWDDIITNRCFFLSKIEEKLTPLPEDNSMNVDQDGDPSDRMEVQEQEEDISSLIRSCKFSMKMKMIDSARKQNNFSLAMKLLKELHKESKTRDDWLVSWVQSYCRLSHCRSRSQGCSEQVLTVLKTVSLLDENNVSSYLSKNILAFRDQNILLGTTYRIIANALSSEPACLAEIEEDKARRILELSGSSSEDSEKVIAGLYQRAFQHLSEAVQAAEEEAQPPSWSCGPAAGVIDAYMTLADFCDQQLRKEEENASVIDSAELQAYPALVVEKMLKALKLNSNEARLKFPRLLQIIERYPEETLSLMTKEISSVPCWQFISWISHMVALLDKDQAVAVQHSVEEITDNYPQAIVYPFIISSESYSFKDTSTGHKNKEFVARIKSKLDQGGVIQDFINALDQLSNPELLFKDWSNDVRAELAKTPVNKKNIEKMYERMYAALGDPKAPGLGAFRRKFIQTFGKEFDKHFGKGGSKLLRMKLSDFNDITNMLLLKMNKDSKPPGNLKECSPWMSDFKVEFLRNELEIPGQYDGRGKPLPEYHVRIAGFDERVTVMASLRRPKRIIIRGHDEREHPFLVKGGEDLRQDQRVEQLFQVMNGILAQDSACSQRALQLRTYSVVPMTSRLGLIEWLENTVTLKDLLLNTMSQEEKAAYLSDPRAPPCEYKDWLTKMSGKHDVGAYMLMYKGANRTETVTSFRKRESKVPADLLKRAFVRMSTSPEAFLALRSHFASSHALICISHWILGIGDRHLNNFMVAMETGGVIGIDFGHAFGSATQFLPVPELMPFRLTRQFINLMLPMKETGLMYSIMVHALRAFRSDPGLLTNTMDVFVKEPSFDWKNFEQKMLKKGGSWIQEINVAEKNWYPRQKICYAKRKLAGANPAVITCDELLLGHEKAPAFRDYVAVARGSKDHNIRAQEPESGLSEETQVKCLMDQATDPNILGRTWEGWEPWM

No constants are given. Whether binding was seen depends on the method and setting. In cells and extracts the contact can be indirect. A yes stands for co-enrichment or nearness to the bait. Other partners may have been found.

For the substance “DNA-PKcs (DNA-dependent protein kinase catalytic subunit), endogenous (from UniProt P78527 1-4128)”, the binding result in assay [1] and in assay [2] was “binds” in each case.

The record behind these values is article PMC10333294.
